# Earlier results as cited in US8829203B2, “3′,6-substituted indirubins and their biological applications” (Centre National de la Recherche Scientifique (CNRS), priority 2008, dated 2014).
# At least one compound was matched to its structure with a doubt left.
# Tested on: Per2 promoter (PPer2) activity, Rat-1 fibroblasts
# Settings: mammalian cells, lithium 10-20 mM, previous investigations; cited from earlier work
smiles,measurement,value
[Li] [Lithium],Circadian period length (previous studies),lengthens the period
